PubChem BioAssay AID504791 | Drosophila RNAi Screening Center – 2011
Screen: 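Factors in Argonaute-based small RNA production and activity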 (primary screen). Cell system: Drosophila S2-derived reporter cells. Knock-down reagent: long dsRNA against Drosophila genes, about 150-250 ng dsRNA per well (siRNA assay); about 80-120 ng (miRNA assay). Duration: about 5 days (siRNA assay); about 4 days (miRNA assay). Treatment: copper sulfate induction of reporters: 25 µM (siRNA assay); 200 mM stated (miRNA assay), 1-2 days before reading. Measurement: 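Per-well ratio of Renilla over firefly light, expressed relative to that plate's average ratio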. Direction: siRNA reporter hit score: higher = 3 marks a strong hit with raised ratio; -3 a strong hit with lowered ratio. Call rule: 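First-pass picks had plate-scaled ratios over 1.5 for the siRNA assay, over 1.6 for the miRNA assay, or under 0.6; two distinct dsRNAs had to score alike on retest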.
The screen tested about 23,000 reagents; below is a random part of those with a known target gene and a result. Of all reagents, 199 (0.86%) were called active. 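Plate-scaled ratios behind the calls are not deposited; printed light signals are raw; many rows marked increased or decreased are still called inactive.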 Entries without a mark were called inactive. Names joined by + are all predicted targets of the reagent.

| gene | DRSC id | siRNA reporter hit score | stable siRNA reporter change | miRNA reporter change | stable assay Renilla, run 1 (luminescence) | stable assay firefly, run 1 (luminescence) |
| --- | --- | --- | --- | --- | --- | --- |
| YME1L | DRSC04378 | – | – | – | 1.13e5 | 2.67e5 |
| CG32246 | DRSC08115 | – | – | – | 6059 | 5.63e5 |
| CG34030 | DRSC08866 | – | – | – | 4791 | 3.59e5 |
| CG4960 | DRSC15684 | – | – | – | 6090 | 2.77e5 |
| CG12540 | DRSC19471 | – | – | – | 4447 | 4.29e5 |
| CG34328 | DRSC19256 | – | reporter ratio raised past the hit cutoff | – | 8338 | 1.17e5 |
| CG5756 | DRSC06950 | – | – | – | 6527 | 3.32e5 |
| Spn | DRSC07986 | – | – | – | 5883 | 3.45e5 |
| Spn | DRSC08490 | – | – | – | 10214 | 3.28e5 |
| Spn | DRSC08491 | – | – | – | 5127 | 2.91e5 |
| CG15422 | DRSC00436 | – | – | – | 7131 | 3.63e5 |
| CG11313 | DRSC14295 | – | – | – | 6403 | 3.77e5 |
| Gld | DRSC12595 | – | – | – | 6771 | 3.43e5 |
| Gr61a | DRSC08358 | – | – | – | 4424 | 3.35e5 |
| Swt1 | DRSC20028 | – | – | – | 6759 | 4.47e5 |
| pgc | DRSC04099 | – | reporter ratio lowered past the hit cutoff | – | 6906 | 7.23e5 |
| Pka-R2 | DRSC07509 | – | – | – | 7450 | 5.60e5 |
| MKP-4 | DRSC19567 | – | reporter ratio lowered past the hit cutoff | – | 7119 | 6.63e5 |
| CG33232 (retired record) | DRSC08187 | – | – | – | 9163 | 3.06e5 |
| CG33232 (retired record) | DRSC08495 | – | – | – | 4691 | 3.41e5 |
| Coq4 + Gorab + frc | DRSC10383 | – | – | – | 8312 | 4.75e5 |
| gkt | DRSC00821 | – | – | – | 7918 | 4.84e5 |
| CG15646 | DRSC19682 | – | – | – | 5232 | 4.06e5 |
| Toll-7 | DRSC07563 | – | – | – | 4671 | 3.89e5 |
| CG17327 | DRSC15225 | – | reporter ratio lowered past the hit cutoff | – | 6448 | 7.26e5 |
| PIG-F | DRSC11069 | – | – | – | 7869 | 3.61e5 |
| CG7329 | DRSC03046 | – | – | – | 6624 | 4.12e5 |
| hook | DRSC03545 | – | – | – | 7315 | 1.37e6 |
| nol | DRSC21425 | – | – | – | 8611 | 4.89e5 |
| CG7049 | DRSC08587 | – | – | – | 9673 | 2.96e5 |
| Art2 | DRSC00627 | – | – | – | 8131 | 4.37e5 |
| CG31287 | DRSC13138 | – | – | – | 4560 | 3.17e5 |
| rux | DRSC18829 | – | – | – | 8336 | 3.69e5 |
| CG34115 | DRSC03840 | – | – | – | 7995 | 5.59e5 |
| CG14357 | DRSC14820 | – | – | – | 9231 | 5.10e5 |
| Him | DRSC19638 | – | – | – | 6164 | 4.27e5 |
| Srp68 | DRSC10475 | – | – | – | 7982 | 4.20e5 |
| CG17266 | DRSC04979 | – | – | – | 7324 | 4.96e5 |
| CG17266 | DRSC22368 | – | – | – | 12062 | 7.95e5 |
| CG2061 | DRSC19348 | – | – | – | 7902 | 5.10e5 |
| Nprl2 | DRSC20153 | – | – | – | 8486 | 5.58e5 |
| Or22a | DRSC00764 | – | – | – | 7047 | 4.48e5 |
| CG10098 | DRSC12509 | – | – | – | 7859 | 4.37e5 |
| VhaPPA1-2 | DRSC16176 | – | – | – | 6987 | 4.51e5 |
| Impbeta11 | DRSC07525 | – | – | – | 7144 | 4.66e5 |
| Dph1 | DRSC09851 | – | – | – | 8721 | 4.39e5 |
| Usf | DRSC18129 | – | – | – | 5947 | 2.42e5 |
| CG3581 | DRSC15499 | – | – | – | 7489 | 3.25e5 |
| nanos | DRSC17018 | – | – | – | 7762 | 3.10e5 |
| CG13423 | DRSC06386 | – | – | – | 7006 | 3.49e5 |
| CG12795 | DRSC00354 | – | – | – | 7584 | 4.19e5 |
| CG30414 | DRSC04372 | – | – | – | 6690 | 4.18e5 |
| CG11113 | DRSC06039 | – | – | – | 6830 | 4.11e5 |
| side | DRSC14523 | – | – | – | 4175 | 4.08e5 |
| side | DRSC14716 | – | – | – | 6884 | 4.21e5 |
| side | DRSC14717 | – | – | – | 6687 | 3.74e5 |
| side | DRSC14718 | – | – | – | 7555 | 3.63e5 |
| side | DRSC14721 | – | – | – | 6339 | 3.30e5 |
| CG2811 | DRSC04318 | – | – | – | 7022 | 5.11e5 |
| Ank | DRSC17127 | – | – | – | 10357 | 7.39e5 |
| CG13309 | DRSC09980 | – | – | – | 6444 | 3.36e5 |
| CG34223 | DRSC05268 | – | – | – | 5719 | 4.10e5 |
| CG11436 | DRSC17783 | – | – | – | 9049 | 5.26e5 |
| CG31743 + CG34313 | DRSC02781 | – | – | – | 6606 | 2.09e6 |
| CG31743 + CG34313 | DRSC02782 | – | – | – | 7379 | 4.17e5 |
| CG42633 | DRSC16061 | – | – | – | 7087 | 3.84e5 |
| Dtwd2 | DRSC12501 | – | – | – | 6799 | 3.62e5 |
| Had2 | DRSC05971 | – | – | – | 8400 | 4.36e5 |
| betaTub85D | DRSC16910 | – | – | – | 6774 | 3.59e5 |
| CG34452 | DRSC09387 | – | – | – | 7062 | 3.57e5 |
| CG13053 | DRSC09934 | – | – | – | 6522 | 3.42e5 |
| Traf4 | DRSC00445 | -3 | reporter ratio lowered past the hit cutoff | – | 7385 | 7.84e5 |
| Traf4 | DRSC00794 | – | – | – | 21380 | 5.33e5 |
| sn | DRSC18834 | – | – | – | 5615 | 2.73e5 |
| GstO3 | DRSC10710 | – | – | – | 6759 | 4.13e5 |
| CG30020 | DRSC06252 | – | – | – | 3879 | 4.36e5 |
| CG30020 | DRSC06730 | -3 | – | – | 7154 | 4.51e5 |
| ear | DRSC15675 | – | – | reporter ratio lowered past the hit cutoff (active) | 4451 | 3.25e5 |
| CG2938 | DRSC18243 | – | – | – | 8174 | 5.83e5 |
| Mhc | DRSC03367 | – | – | – | 7028 | 4.96e5 |
| Arpc3A | DRSC15596 | – | – | – | 7483 | 4.03e5 |
| Or65c | DRSC21312 | – | – | – | 9871 | 6.09e5 |
| rgn | DRSC11609 | – | – | – | 10703 | 4.74e5 |

Entries listed so far with an active call:
| gene | DRSC id | siRNA reporter hit score | stable siRNA reporter change | miRNA reporter change | stable assay Renilla, run 1 (luminescence) | stable assay firefly, run 1 (luminescence) |
| --- | --- | --- | --- | --- | --- | --- |
| ear | DRSC15675 | – | – | reporter ratio lowered past the hit cutoff (active) | 4451 | 3.25e5 |
